Results on two substances are retold here after publication PMC4421817.

The chains behind the UniProt entries cited, without tags or fusion partners. Where a name states a change or a piece, a line headed by the entry shows the natural chain unless it says otherwise.
UniProt P31153: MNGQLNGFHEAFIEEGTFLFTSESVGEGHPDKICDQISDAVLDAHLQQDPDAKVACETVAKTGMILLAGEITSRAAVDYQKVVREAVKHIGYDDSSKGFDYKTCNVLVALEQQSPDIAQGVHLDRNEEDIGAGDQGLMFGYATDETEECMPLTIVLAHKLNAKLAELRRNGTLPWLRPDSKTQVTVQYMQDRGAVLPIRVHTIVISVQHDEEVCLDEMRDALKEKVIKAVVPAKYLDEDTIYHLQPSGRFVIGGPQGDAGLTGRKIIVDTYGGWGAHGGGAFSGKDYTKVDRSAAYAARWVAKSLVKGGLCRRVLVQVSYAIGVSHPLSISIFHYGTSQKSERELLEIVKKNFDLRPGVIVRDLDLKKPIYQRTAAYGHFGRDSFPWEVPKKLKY
UniProt O15379: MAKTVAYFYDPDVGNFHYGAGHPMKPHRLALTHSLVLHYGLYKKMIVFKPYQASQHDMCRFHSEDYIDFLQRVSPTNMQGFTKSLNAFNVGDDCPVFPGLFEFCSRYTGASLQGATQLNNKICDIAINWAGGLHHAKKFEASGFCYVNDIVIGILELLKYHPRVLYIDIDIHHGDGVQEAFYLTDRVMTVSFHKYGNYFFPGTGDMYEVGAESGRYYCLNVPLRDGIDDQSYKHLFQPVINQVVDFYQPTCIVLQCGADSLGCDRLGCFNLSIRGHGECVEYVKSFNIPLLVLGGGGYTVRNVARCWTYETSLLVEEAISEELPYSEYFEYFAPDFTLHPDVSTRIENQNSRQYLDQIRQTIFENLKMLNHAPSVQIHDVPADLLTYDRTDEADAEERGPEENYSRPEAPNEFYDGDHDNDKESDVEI
UniProt Q09472: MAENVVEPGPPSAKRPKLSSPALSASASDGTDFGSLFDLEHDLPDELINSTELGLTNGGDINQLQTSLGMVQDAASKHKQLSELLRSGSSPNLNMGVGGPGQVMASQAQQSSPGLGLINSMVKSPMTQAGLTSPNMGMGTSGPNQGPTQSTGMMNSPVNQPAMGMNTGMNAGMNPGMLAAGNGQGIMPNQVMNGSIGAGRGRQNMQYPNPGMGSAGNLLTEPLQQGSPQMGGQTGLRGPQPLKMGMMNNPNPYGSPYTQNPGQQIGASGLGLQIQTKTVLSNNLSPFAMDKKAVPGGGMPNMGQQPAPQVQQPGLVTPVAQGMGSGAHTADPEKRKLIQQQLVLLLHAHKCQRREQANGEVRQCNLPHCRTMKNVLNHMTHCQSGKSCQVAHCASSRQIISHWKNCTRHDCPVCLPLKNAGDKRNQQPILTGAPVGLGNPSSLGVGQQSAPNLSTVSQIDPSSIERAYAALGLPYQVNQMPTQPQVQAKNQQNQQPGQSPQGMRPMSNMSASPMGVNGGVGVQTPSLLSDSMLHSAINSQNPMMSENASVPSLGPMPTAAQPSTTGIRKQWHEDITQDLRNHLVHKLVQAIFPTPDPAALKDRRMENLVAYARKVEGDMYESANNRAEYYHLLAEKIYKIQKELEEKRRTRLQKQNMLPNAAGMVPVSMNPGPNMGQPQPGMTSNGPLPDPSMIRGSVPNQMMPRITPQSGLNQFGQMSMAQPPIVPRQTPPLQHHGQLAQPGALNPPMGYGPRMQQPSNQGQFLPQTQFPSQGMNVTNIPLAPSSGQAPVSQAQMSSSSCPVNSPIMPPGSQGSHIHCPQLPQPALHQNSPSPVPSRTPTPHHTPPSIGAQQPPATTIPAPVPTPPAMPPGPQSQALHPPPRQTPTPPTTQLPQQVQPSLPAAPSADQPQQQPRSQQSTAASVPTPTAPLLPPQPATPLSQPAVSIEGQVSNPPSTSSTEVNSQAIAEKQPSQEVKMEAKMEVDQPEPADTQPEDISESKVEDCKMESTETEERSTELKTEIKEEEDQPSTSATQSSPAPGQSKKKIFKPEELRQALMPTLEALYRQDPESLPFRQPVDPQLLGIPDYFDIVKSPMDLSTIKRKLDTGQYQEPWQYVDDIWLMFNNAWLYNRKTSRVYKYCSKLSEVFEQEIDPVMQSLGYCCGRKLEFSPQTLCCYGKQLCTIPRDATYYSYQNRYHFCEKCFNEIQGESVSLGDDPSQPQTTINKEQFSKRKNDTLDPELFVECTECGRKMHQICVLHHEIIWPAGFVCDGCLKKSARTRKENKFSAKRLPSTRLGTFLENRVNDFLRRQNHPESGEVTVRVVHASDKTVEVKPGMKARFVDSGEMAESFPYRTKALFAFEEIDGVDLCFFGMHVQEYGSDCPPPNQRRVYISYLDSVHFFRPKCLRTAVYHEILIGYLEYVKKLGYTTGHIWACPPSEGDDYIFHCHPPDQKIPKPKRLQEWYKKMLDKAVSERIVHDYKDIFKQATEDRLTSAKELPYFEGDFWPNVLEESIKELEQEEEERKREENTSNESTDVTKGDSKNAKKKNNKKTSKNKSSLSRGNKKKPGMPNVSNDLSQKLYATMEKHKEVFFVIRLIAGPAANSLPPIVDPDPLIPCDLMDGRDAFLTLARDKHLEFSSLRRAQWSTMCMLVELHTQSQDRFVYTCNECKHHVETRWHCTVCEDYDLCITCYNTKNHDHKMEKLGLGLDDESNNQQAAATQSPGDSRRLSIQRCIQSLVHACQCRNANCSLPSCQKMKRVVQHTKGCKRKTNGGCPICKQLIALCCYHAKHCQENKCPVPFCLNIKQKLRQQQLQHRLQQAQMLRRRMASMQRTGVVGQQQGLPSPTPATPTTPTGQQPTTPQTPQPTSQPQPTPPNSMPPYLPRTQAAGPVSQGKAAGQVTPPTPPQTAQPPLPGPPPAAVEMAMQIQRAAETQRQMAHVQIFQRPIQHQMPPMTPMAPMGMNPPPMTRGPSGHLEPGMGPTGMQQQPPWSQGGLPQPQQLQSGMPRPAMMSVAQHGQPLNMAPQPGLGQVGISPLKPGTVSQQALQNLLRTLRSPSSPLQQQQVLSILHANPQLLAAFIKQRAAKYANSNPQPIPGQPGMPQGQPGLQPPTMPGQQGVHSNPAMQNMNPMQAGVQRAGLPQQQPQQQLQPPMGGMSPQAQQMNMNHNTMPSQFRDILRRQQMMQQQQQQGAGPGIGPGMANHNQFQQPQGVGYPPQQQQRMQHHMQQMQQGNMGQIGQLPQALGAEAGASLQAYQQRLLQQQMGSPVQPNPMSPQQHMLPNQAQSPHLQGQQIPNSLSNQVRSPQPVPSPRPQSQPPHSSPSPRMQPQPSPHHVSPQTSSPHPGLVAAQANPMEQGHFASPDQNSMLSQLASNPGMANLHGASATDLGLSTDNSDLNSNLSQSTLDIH

No constants are given. Whether binding was seen depends on the method and setting. Binding seen in cells or lysates may run through a third protein. Some binding calls cover weakened binding; strength is not graded here.

Assay [1] addresses endogenous MAT IIα (human (endogenous in HEK293T)) (UniProt P31153). Description: co-IP; endogenous proteins; HEK293T cultured with or without folate for 48 h and treated with MG132 for 6 h before harvest; western blotting.
Assay [2] deals with GST-MAT IIα (human) (UniProt P31153). Nature of the assay: pull-down; GST-MAT IIα on GST antibody-conjugated beads, mixed with HEK293T cell lysate (0.3% Nonidet P40 buffer) at 4 °C overnight; non-induced E. coli as negative control; western blotting; only the target purified. In general terms: A western blot detects proteins with antibodies after separation by electrophoresis.
Assay [3] has as its target flag-MAT IIα (human) (UniProt P31153). Description: co-IP; HEK293T transfected with flag-MAT IIα, normal or folate-deprived culture; lysis in 0.3% Nonidet P40 buffer (150 mM NaCl, 50 mM Tris-HCl, pH 7.5); anti-flag M2 agarose 3 h at 4 °C; endogenous P300 detected by western blotting.

Take “HDAC3 (histone deacetylase-3) (from UniProt O15379 1-428) (enzyme)”: the binding result in assay [1] and in assay [2] was “binds” throughout.

As to “P300 (E1A binding protein) (from UniProt Q09472 1-2414) (enzyme)”, the binding entry in assay [2] and in assay [3] was “binds” each time.
